Measured values reported in article PMC4758617.
These are yes or no findings as the source states them, for the method shown. Binding seen in cells or lysates may run through a third protein. These calls come from enrichment with a bait or labelling near it, and not all partners need be listed. Where a sequence is shown, tags or fusion partners need not be part of it.

Protein sequences, listed by entry. Tags and fused reporters are not part of them. Residues count along the entry.
UniProt Q8WXI9: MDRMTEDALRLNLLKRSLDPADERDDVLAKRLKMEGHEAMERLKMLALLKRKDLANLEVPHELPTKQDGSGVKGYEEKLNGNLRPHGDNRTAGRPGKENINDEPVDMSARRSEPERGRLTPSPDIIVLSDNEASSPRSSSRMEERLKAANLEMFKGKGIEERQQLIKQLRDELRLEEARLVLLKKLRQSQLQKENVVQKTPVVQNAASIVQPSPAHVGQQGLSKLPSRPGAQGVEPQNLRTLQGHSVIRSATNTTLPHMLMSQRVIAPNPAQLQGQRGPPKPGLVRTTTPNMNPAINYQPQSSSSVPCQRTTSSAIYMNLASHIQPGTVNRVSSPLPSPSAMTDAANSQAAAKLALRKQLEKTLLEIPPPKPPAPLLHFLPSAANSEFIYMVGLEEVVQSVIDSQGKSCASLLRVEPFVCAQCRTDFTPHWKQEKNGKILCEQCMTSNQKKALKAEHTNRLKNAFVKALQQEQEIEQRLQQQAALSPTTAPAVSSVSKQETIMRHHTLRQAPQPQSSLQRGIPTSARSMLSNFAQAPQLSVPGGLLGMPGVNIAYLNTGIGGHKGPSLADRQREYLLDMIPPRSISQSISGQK
UniProt P02545, residues 1-646: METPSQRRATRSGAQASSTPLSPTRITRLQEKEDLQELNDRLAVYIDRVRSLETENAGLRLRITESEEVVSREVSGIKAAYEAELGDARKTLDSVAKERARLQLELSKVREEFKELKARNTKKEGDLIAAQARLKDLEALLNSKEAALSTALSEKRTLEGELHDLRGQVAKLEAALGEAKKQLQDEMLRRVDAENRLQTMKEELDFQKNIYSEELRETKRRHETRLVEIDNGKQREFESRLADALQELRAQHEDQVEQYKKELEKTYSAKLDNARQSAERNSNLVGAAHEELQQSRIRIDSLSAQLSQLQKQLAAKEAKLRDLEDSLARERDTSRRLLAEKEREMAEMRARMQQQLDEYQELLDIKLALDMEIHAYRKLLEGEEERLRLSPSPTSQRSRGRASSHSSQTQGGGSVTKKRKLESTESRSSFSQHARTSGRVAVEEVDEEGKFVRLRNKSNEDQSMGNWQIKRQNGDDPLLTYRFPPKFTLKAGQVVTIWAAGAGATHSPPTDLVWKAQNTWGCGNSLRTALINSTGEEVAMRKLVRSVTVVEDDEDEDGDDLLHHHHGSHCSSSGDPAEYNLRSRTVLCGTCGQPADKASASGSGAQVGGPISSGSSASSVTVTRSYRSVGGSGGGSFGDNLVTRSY
UniProt P78527: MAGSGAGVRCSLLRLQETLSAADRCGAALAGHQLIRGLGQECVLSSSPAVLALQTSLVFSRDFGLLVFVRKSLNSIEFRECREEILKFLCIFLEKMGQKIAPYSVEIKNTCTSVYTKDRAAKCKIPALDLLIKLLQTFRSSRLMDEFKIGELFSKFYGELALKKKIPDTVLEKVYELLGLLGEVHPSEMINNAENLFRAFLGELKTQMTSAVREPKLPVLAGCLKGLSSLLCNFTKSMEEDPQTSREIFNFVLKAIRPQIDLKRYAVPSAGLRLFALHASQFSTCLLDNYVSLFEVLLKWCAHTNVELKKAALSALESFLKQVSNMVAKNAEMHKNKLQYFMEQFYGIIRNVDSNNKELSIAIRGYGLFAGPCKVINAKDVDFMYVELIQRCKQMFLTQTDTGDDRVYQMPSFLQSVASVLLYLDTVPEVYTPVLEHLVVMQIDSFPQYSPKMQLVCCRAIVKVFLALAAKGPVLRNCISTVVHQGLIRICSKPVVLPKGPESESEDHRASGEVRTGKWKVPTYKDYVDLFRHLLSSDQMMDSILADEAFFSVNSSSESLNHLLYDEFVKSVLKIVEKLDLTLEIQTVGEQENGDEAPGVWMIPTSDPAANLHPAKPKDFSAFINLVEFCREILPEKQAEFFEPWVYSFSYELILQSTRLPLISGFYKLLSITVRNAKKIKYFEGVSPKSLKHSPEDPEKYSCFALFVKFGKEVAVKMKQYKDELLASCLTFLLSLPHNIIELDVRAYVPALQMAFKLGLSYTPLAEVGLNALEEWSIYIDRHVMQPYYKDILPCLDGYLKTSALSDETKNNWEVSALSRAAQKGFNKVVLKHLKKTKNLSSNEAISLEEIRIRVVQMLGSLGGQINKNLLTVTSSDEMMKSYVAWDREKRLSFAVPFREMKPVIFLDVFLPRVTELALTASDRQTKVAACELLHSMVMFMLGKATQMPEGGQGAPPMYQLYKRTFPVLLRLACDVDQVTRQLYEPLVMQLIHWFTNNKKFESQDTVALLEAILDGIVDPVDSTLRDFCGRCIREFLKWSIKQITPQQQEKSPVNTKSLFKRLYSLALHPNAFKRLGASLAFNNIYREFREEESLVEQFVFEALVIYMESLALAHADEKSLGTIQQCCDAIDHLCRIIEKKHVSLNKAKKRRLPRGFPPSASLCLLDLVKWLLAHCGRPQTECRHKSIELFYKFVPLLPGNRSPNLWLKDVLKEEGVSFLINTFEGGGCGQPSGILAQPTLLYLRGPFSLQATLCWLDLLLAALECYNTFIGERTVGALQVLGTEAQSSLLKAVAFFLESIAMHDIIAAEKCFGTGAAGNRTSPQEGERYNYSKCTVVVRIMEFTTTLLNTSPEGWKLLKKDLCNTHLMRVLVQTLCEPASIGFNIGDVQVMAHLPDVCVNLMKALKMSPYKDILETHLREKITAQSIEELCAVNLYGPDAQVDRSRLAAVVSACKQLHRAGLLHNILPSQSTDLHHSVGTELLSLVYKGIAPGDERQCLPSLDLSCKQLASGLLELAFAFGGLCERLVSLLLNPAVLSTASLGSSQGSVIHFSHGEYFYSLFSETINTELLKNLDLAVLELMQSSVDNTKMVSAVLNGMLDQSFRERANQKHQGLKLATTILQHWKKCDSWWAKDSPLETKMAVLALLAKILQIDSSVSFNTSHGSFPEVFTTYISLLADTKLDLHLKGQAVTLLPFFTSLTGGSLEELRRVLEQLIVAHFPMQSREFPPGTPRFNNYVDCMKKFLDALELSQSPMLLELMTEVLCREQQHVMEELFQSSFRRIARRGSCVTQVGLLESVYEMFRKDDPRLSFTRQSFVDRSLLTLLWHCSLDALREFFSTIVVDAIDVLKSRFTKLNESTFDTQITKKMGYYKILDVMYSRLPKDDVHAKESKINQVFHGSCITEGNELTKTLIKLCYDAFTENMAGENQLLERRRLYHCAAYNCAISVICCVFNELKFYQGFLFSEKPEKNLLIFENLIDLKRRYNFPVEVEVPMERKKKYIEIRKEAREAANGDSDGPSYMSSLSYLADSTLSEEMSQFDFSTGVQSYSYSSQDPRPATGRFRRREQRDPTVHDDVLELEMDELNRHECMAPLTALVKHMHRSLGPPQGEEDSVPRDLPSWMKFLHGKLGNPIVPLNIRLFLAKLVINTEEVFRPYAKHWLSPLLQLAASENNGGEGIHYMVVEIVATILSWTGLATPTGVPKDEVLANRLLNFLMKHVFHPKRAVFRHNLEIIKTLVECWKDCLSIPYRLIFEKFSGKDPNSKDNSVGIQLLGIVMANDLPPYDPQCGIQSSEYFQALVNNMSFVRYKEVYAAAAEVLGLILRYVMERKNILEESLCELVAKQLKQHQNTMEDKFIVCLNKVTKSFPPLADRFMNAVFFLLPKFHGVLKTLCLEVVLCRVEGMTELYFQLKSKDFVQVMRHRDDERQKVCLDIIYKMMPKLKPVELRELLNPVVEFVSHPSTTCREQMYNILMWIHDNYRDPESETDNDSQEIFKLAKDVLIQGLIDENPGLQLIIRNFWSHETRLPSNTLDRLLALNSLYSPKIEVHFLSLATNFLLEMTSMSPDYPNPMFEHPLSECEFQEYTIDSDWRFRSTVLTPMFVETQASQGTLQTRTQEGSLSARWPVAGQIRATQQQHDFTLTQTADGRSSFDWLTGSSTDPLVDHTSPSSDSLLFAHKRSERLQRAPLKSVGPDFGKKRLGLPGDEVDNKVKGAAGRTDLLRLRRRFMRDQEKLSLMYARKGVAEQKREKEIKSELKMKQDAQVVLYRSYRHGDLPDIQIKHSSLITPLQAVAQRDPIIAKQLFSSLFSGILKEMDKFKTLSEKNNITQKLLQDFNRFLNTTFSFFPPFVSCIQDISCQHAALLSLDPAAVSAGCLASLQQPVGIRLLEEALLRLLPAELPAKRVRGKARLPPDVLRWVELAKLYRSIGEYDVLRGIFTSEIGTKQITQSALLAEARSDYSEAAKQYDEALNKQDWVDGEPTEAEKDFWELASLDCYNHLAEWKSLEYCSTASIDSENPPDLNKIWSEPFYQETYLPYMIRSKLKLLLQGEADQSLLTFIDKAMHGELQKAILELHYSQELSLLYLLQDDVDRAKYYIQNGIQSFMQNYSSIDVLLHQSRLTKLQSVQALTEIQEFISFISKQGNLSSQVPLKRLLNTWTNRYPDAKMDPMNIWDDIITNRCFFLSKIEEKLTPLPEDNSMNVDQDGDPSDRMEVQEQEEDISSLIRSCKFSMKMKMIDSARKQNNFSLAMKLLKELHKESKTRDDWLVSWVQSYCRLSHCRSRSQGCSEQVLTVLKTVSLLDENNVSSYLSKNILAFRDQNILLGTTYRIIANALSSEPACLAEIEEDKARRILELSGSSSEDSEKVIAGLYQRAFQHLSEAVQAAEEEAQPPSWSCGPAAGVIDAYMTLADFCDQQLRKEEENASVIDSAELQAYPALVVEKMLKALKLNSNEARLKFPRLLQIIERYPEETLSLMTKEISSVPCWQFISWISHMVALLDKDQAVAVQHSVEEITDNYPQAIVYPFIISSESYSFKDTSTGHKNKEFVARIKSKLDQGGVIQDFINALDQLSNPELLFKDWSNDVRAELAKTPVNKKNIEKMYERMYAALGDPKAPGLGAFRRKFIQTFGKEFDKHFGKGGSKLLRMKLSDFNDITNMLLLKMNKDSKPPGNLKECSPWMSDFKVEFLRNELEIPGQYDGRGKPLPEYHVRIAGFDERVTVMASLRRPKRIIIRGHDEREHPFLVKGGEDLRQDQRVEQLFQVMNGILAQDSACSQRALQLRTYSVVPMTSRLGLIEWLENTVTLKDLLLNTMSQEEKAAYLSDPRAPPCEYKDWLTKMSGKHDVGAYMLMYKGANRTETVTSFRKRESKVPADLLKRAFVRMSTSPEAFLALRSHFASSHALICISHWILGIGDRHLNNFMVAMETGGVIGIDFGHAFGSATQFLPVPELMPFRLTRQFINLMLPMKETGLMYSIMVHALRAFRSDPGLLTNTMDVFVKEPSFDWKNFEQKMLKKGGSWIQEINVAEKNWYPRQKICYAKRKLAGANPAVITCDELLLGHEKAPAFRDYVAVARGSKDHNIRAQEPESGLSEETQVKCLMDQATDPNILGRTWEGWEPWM
UniProt P62191: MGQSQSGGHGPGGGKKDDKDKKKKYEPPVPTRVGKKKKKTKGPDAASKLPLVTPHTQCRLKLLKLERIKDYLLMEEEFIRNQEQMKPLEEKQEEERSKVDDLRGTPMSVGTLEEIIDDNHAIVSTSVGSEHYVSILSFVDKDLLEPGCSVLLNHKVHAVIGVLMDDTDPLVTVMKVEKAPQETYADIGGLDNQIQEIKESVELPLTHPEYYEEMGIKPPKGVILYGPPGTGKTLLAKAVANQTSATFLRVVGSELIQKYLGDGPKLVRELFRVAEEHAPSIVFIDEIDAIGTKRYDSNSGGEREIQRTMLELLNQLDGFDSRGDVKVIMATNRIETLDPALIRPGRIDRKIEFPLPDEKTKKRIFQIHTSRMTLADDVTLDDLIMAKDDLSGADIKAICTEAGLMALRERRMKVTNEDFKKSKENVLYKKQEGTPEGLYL
UniProt P26599: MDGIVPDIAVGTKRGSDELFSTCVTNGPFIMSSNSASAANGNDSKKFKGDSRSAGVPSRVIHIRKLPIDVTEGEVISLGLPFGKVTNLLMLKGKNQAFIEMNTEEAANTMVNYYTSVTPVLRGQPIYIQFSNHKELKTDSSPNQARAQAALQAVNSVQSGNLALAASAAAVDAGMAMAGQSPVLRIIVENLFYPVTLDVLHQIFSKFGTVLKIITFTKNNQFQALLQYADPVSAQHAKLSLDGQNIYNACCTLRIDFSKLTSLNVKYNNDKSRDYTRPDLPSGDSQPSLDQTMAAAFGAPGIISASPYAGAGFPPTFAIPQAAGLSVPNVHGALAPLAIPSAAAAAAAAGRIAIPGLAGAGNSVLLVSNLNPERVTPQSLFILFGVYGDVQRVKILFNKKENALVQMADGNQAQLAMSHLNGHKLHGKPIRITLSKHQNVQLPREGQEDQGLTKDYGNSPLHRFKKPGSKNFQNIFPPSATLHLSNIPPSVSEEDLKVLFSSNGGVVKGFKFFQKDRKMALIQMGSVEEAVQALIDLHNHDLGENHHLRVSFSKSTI
UniProt P16403: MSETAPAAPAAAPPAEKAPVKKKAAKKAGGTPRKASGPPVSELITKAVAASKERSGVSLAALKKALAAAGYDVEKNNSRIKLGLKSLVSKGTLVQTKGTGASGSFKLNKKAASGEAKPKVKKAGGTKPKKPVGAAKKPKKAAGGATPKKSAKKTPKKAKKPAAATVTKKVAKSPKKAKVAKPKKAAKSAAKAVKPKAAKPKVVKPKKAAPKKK

Biological target: T1, FLAG tagged SETD7 (protein lysine methyltransferase SETD7) (human) (UniProt Q8WTS6)
T1 sequence: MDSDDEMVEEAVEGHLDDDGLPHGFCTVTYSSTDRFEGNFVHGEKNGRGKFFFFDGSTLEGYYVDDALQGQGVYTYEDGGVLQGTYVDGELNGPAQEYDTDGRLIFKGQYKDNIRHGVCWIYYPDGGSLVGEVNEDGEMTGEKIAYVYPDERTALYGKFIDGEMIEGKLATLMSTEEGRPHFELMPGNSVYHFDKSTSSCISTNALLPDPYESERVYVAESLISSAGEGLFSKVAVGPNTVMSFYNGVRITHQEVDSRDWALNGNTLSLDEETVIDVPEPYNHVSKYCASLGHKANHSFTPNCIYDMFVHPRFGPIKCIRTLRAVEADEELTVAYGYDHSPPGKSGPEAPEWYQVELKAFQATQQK
Assay: affinity purification with mass spectrometry; nuclear extract of HeLa cells transduced with FLAG:SETD7 (control: empty vector), adjusted to 300 mM salt and 0.1% NP40, on ANTI-FLAG M2 affinity gel; washed with BC300 with 0.1% NP40; eluted with 0.3 mg/ml FLAG peptide; in-gel or in-solution digestion

binding, binds:
EEF1D (from UniProt P29692 1-281), GATAD2B (from UniProt Q8WXI9 1-593), LMNA (from UniProt P02545 1-646), PCNA (from UniProt P12004 1-261), PFKFB2 (from UniProt O60825 1-505), PRKDC (from UniProt P78527 1-4128), PSMC1 (from UniProt P62191 1-440), PTBP1 (from UniProt P26599 1-557), RIF1 (from UniProt Q5UIP0 1-2472), RUVBL1 (from UniProt Q9Y265 1-456), SFRS1 (from UniProt Q07955 1-248), SRRM2 (from UniProt Q9UQ35 1-2752), linker histone H1.2 (HIST1H1C) (from UniProt P16403 1-213)
